Experimental data: PubChem BioAssay AID743121 (NCATS, 2013)

- Test: 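Partners whose loss is lethal together with topoisomerase I blockade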 (primary screen)
- Cells: MDA-MB-231 cells, a human breast cancer line
- Knock-down reagent: single siRNA against human genes, 20 nM siRNA (0.8 pmol per well)
- Duration: 120 h (drug added 48 h after transfection, read 72 h later)
- Conditions: camptothecin 20 nM (about EC30) for 72 h; vehicle 0.1% DMSO in parallel plates
- Measurement: 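Cell viability by ATP luminescence (CellTiter-Glo) as % of non-targeting siRNA wells, and the log2 ratio of viability without drug over viability with camptothecin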
- Scale: log2 vehicle/camptothecin viability: higher = stronger sensitisation to camptothecin
- Hit rule: 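Active genes have an RSA gene-level p-value below 0.001, computed from the ratios of their separate siRNAs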
Shown is an unselected part of about 26,000 deposited reagents. 167 of them (0.63%) were called active. 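Calls are per gene from RSA p-values that are not deposited; an individual active-marked siRNA can sensitise only weakly.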 Unmarked entries are inactive. Reagents against one gene are numbered here. Not all columns of the deposit are shown. Reagent sequences are not shown.

With ATM #1, how do the results read?
log2 vehicle/camptothecin viability: -0.153

What is on record for ATM #2?
log2 vehicle/camptothecin viability: 0.169

For ATM #3, what was measured?
log2 vehicle/camptothecin viability: -0.537

With ATM #4, what does the deposit list?
log2 vehicle/camptothecin viability: -0.298

For BID #1, what was measured?
log2 vehicle/camptothecin viability: -0.103

How did the screen score BID #2?
log2 vehicle/camptothecin viability: -0.0688

With BID #3, how do the results read?
log2 vehicle/camptothecin viability: -0.128

Which result is listed for BID #4?
log2 vehicle/camptothecin viability: 0.0689

With ADAMTS17 #1, what does the deposit list?
log2 vehicle/camptothecin viability: -0.502

For ADAMTS17 #2, what was measured?
log2 vehicle/camptothecin viability: -0.377

How did the screen score ADAMTS17 #3?
log2 vehicle/camptothecin viability: 0.0584

With ADAMTS17 #4, how do the results read?
log2 vehicle/camptothecin viability: -0.037

How did the screen score FANCC #1?
log2 vehicle/camptothecin viability: -0.0126

With FANCC #2, how do the results read?
log2 vehicle/camptothecin viability: -0.215

What is on record for FANCC #3?
log2 vehicle/camptothecin viability: -0.222

With FANCC #4, how do the results read?
log2 vehicle/camptothecin viability: -0.263

How did the screen score SELENON #1?
log2 vehicle/camptothecin viability: -0.0883

For SELENON #2, how do the results read?
log2 vehicle/camptothecin viability: 0.375

How did the screen score SELENON #3?
log2 vehicle/camptothecin viability: -0.119

For SELENON #4, what does the deposit list?
log2 vehicle/camptothecin viability: 0.152

Targets listed so far whose target name starts with S or s:
SELENON #1 — log2 vehicle/camptothecin viability: -0.0883
SELENON #2 — log2 vehicle/camptothecin viability: 0.375
SELENON #3 — log2 vehicle/camptothecin viability: -0.119
SELENON #4 — log2 vehicle/camptothecin viability: 0.152

The results go on:
How did the screen score COG1 #1?
log2 vehicle/camptothecin viability: 0.296

Which result is listed for COG1 #2?
log2 vehicle/camptothecin viability: -0.0822

How did the screen score COG1 #3?
log2 vehicle/camptothecin viability: -0.204

How did the screen score COG1 #4?
log2 vehicle/camptothecin viability: -0.406

For TRPV1 #1, what does the deposit list?
log2 vehicle/camptothecin viability: -0.522

What is on record for TRPV1 #2?
log2 vehicle/camptothecin viability: -0.298

What is on record for TRPV1 #3?
log2 vehicle/camptothecin viability: -0.175

With ACSM3 #1, what does the deposit list?
log2 vehicle/camptothecin viability: 0.0459

How did the screen score ACSM3 #2?
log2 vehicle/camptothecin viability: 0.00148

How did the screen score ACSM3 #3?
log2 vehicle/camptothecin viability: -0.431

With PTPRC #1, how do the results read?
log2 vehicle/camptothecin viability: -0.0299

For PTPRC #2, how do the results read?
log2 vehicle/camptothecin viability: -0.0713

With PTPRC #3, what does the deposit list?
log2 vehicle/camptothecin viability: 0.102

With PTPRC #4, what does the deposit list?
log2 vehicle/camptothecin viability: -0.0991

For CSMD3 #1, how do the results read?
log2 vehicle/camptothecin viability: -0.203

For CSMD3 #2, what was measured?
log2 vehicle/camptothecin viability: -0.411

For CSMD3 #3, what was measured?
log2 vehicle/camptothecin viability: -0.18
